Data on one substance can be found in publication PMC10545682.

By UniProt entry, the sequences of proteins in these tests, tags left out. Where a name states a change or a piece, a line headed by the entry shows the natural chain unless it says otherwise. Chains listed by the source or under a name are the forms on record and can include a tag or linker.
UniProt Q8WV24: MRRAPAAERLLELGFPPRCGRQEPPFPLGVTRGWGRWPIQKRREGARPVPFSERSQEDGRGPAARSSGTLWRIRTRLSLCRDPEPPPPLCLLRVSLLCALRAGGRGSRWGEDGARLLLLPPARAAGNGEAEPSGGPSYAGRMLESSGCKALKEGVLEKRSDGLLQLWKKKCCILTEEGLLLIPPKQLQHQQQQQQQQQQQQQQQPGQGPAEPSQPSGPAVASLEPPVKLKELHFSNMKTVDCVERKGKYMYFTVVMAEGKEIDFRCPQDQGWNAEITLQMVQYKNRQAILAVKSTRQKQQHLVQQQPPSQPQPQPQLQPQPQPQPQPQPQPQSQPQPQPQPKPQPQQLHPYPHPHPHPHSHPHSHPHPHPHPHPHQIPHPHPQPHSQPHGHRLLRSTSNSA
constitutively active FGFR2 mutant (C383R) (P21802-3, form named): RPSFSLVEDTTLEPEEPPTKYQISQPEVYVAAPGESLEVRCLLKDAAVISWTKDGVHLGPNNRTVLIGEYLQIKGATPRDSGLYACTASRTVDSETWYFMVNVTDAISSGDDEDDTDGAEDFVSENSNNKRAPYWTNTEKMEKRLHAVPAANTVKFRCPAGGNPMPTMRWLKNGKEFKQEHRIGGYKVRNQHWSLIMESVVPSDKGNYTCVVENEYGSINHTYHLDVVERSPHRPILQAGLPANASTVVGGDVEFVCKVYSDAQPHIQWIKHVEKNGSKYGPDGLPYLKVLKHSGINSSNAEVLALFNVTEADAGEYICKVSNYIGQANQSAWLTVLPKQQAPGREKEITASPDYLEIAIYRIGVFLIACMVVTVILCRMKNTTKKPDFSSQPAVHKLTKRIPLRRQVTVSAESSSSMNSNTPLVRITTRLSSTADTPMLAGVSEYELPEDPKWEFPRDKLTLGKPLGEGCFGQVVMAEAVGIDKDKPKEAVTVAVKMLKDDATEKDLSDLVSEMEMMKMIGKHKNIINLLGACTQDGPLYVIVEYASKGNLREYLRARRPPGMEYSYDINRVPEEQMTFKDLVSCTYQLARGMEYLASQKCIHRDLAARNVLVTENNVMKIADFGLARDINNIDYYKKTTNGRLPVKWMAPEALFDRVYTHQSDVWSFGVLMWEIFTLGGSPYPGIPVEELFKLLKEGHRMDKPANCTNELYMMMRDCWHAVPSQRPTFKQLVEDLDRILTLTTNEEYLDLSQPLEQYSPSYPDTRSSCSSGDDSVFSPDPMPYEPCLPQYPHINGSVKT

Results are given in words; binding and its absence hold for the method and conditions named. In cells and extracts the contact can be indirect. Some binding calls cover weakened binding; strength is not graded here.

This assay has as its target Pleckstrin homology-like domain family A member 1 with HA tag (PHLDA1-HA) (UniProt Q8WV24). In words: co-IP; HEK293T cells co-transfected with FGFR2-C383R and PHLDA1-HA, harvested 48 h after transfection, NP40 lysis buffer with phosphatase inhibitors; extracts incubated with anti-HA agarose beads overnight at 4 °C; Western blot of the precipitates. For orientation: In western blotting, separated proteins are transferred to a membrane and probed.

On to “constitutively active FGFR2 mutant (C383R) (from UniProt P21802-3 22-822) (receptor)”, for which the binding entry is reported as “binds”.
